# Laboratory results: the supplement of paper PMC6411743
# Protein sequences, listed by entry. Tags and fused reporters are not part of them. Lines headed by an entry give the natural chain unless they say otherwise; changes in a name come on top.
# UniProt O75155: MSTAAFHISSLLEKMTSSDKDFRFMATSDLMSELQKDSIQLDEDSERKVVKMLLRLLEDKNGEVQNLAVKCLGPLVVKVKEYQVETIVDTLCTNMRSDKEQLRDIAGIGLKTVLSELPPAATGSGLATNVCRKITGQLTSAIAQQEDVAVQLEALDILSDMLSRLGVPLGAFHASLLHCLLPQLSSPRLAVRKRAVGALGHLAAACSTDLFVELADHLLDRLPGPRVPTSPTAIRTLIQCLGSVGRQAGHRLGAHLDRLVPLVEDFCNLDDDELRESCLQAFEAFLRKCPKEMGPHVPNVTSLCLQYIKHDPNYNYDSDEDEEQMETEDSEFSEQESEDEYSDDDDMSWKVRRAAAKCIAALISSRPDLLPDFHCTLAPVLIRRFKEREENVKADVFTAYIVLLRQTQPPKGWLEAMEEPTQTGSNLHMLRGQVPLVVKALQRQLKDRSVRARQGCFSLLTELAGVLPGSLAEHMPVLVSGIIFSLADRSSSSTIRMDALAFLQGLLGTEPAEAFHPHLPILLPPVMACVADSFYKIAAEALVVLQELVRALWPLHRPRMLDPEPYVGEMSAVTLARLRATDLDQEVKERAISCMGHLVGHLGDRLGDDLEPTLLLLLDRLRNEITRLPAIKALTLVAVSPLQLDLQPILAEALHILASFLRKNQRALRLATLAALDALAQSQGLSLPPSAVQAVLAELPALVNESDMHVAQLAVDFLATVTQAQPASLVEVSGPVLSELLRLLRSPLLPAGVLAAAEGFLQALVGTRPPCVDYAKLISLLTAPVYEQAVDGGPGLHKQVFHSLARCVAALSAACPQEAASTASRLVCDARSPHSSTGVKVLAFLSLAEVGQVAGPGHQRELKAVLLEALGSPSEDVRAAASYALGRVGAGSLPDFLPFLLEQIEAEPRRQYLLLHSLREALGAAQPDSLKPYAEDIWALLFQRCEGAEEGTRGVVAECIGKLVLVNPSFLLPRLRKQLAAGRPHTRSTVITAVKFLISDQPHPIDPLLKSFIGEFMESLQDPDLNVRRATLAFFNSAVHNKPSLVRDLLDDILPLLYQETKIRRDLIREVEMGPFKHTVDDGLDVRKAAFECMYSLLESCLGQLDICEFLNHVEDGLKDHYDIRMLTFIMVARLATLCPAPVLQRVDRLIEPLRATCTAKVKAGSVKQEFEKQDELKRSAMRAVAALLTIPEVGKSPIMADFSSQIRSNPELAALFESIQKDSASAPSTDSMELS
# UniProt P07108: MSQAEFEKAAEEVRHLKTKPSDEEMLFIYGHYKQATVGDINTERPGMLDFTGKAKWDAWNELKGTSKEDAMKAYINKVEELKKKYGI
# UniProt O75367, whole entry: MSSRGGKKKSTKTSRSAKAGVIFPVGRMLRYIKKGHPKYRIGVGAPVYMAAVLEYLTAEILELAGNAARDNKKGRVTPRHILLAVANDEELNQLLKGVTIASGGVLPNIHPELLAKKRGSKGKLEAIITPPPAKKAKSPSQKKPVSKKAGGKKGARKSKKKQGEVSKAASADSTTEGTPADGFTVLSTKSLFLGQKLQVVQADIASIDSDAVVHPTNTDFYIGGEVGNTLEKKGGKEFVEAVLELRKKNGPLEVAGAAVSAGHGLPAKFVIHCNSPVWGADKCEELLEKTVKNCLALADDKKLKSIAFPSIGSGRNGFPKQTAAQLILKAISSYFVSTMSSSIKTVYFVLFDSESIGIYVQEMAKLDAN
# UniProt P05771, whole entry, looked up: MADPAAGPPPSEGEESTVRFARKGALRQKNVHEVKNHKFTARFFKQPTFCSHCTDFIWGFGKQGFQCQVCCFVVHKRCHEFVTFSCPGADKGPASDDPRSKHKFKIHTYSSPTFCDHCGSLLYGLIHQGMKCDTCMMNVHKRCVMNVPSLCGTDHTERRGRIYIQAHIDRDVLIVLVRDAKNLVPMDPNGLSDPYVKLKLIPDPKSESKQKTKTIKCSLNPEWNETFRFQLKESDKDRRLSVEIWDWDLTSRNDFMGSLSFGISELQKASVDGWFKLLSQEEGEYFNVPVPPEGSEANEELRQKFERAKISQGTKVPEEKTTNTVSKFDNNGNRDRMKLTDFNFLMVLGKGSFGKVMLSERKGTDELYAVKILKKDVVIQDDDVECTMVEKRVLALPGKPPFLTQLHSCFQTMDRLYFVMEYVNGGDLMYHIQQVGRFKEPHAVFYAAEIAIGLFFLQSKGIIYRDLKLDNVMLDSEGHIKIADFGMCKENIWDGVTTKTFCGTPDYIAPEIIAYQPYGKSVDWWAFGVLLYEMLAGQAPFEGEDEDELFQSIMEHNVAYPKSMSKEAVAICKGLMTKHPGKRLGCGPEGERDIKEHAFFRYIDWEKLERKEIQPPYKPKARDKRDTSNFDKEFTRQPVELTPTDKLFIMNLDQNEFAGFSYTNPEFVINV
# UniProt P05114: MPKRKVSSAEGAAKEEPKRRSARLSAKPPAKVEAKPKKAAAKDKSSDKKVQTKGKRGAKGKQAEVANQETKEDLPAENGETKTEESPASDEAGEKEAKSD
# UniProt O95475: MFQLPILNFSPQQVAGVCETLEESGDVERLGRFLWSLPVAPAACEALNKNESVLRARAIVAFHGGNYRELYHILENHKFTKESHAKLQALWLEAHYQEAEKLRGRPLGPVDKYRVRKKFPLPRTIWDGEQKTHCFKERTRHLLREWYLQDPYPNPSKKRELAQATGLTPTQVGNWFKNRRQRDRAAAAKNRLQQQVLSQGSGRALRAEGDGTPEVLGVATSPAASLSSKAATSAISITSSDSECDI
# UniProt O75477: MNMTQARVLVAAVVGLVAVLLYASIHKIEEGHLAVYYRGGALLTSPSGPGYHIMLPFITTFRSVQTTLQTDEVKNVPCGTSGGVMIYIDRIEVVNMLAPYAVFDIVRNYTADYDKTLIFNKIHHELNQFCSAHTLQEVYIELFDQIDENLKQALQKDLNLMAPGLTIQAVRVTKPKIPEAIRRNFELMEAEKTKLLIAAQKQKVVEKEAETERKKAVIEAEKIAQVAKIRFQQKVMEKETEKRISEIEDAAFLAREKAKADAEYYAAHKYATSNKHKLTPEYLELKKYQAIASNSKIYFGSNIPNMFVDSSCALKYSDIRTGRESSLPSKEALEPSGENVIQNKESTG
# UniProt P01737: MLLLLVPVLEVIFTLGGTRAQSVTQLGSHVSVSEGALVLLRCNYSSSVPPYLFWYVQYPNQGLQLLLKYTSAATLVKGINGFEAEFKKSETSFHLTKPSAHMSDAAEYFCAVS
# UniProt O75794: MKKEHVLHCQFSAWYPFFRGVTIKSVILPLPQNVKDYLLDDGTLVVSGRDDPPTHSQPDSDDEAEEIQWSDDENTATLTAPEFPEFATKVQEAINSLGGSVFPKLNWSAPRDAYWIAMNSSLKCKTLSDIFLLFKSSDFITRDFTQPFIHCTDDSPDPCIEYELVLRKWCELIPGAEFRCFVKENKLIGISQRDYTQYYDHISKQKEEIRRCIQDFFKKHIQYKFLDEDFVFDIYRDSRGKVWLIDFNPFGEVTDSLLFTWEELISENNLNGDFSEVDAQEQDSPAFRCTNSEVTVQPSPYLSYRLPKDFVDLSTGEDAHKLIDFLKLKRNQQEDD
# UniProt O75323: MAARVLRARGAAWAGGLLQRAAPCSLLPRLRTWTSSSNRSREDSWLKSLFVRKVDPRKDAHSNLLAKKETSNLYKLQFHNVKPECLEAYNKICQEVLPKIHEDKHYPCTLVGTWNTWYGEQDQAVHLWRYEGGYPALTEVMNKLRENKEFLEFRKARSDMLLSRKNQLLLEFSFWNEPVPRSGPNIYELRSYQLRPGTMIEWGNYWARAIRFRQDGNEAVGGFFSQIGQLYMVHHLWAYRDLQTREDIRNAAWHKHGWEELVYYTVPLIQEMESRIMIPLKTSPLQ
# UniProt P00390: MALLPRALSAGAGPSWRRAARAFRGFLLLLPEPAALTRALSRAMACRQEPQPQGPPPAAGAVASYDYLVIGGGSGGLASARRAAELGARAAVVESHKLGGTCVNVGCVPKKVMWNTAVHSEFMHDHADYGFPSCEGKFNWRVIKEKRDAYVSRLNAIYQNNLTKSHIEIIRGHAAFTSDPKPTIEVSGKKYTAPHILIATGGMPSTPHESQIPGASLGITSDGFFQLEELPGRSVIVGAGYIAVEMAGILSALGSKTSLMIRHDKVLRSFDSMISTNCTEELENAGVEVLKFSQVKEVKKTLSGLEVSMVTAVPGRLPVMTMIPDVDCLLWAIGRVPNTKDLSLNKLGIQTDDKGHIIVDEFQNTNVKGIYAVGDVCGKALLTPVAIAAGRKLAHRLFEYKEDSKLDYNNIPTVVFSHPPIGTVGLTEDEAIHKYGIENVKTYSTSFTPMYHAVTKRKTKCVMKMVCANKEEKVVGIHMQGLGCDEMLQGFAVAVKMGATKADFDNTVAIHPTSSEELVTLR
# UniProt P02794, whole entry: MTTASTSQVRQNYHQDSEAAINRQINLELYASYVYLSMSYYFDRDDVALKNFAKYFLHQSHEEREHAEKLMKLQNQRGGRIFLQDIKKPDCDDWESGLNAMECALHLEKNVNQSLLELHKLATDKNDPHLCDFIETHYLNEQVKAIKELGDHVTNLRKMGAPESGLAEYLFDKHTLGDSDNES
# UniProt O95163: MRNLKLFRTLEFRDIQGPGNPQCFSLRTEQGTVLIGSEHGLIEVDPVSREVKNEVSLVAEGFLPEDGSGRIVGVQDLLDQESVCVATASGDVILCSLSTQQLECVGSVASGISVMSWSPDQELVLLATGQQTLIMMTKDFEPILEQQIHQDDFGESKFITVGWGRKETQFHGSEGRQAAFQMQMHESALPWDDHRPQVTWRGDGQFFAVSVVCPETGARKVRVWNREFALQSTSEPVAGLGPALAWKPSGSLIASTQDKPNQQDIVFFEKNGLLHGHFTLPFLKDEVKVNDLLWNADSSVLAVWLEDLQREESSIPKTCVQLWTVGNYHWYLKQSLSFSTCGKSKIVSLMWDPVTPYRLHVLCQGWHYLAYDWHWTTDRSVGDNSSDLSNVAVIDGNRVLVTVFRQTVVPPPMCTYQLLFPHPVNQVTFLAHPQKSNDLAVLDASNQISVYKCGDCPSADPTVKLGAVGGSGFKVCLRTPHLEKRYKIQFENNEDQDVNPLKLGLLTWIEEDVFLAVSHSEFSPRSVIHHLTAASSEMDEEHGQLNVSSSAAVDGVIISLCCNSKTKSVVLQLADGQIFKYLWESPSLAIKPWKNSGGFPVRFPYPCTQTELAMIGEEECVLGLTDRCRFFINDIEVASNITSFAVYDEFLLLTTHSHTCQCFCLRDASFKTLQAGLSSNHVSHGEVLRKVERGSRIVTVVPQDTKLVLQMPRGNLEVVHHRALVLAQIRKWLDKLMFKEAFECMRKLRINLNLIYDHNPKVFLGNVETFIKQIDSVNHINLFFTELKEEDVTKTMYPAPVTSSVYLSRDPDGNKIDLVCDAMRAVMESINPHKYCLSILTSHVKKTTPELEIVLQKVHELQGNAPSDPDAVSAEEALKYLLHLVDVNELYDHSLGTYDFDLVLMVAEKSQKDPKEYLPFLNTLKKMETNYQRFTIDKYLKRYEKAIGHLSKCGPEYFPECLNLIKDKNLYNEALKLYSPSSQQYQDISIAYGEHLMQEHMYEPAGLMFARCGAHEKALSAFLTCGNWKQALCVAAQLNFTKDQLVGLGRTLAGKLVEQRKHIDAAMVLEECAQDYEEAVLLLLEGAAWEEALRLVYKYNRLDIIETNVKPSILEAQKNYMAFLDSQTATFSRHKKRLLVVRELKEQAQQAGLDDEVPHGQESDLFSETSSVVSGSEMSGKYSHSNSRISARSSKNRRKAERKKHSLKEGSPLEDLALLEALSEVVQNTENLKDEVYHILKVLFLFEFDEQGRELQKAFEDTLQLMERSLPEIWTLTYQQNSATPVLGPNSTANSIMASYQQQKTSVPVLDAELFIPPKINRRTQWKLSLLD
# UniProt O75427: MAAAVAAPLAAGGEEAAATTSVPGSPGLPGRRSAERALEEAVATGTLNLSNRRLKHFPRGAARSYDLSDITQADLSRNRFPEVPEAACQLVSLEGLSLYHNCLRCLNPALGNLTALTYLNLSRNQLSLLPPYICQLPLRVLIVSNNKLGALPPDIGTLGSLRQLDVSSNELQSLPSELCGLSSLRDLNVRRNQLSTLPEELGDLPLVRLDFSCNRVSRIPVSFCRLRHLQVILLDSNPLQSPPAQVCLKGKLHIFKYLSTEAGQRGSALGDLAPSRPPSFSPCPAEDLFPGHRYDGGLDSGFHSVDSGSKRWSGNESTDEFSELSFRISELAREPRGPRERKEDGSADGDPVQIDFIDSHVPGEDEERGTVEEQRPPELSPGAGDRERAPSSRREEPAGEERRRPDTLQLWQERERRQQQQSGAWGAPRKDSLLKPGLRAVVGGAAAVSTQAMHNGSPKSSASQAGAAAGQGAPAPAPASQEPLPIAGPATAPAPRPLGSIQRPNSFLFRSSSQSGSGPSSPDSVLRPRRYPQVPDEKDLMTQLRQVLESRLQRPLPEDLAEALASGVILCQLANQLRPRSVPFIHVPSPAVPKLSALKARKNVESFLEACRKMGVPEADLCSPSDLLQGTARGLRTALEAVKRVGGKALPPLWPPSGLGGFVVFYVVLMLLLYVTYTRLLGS
# ± gives the standard deviation of the averaged measurements. This is one part of the list.
# Compound: Nc1nc2c(ncn2[C@@H]2O[C@H](COP(=O)(O)OP(=O)(O)OP(=O)(O)O)[C@@H](O)[C@H]2O)c(=O)[nH]1 [guanosine triphosphate]
# Test: NP40-soluble protein abundance relative to vehicle (solubility fold change) (ratio); higher = more soluble protein in presence of GTP
# How it was run: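 Each value is a fold change relative to the detergent-processed vehicle, calculated per replicate from vsn-normalised intensities. Jurkat crude lysate received eight concentrations (0.1 to 10 mM) for 10 min at room temperature and 3 min at 37 °C, then was solubilised in 0.8% NP40 with benzonase (60 min, 4 °C). The ultracentrifuged supernatant was TMT-labelled and run by LC-MS/MS in three independent experiments.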
Target,NP40-soluble protein abundance (concentration: 0.1mM),NP40-soluble protein abundance (concentration: 0.5mM),NP40-soluble protein abundance (concentration: 1mM),NP40-soluble protein abundance (concentration: 2mM),NP40-soluble protein abundance (concentration: 4mM),NP40-soluble protein abundance (concentration: 6mM),NP40-soluble protein abundance (concentration: 8mM),NP40-soluble protein abundance (concentration: 10mM)
UniProt O95628 and related entries,0.964 ± 0.028,0.909 ± 0.035,0.897 ± 0.042,0.9114 ± 0.006,0.896 ± 0.061,0.888 ± 0.014,0.879 ± 0.046,0.902 ± 0.04
UniProt O75155 and related entries,1.05 ± 0.057,0.994 ± 0.027,0.973 ± 0.069,0.991 ± 0.024,1.01 ± 0.047,1 ± 0.026,0.993 ± 0.041,0.996 ± 0.036
DBI (UniProt P07108),0.967 ± 0.029,0.969 ± 0.08,0.985 ± 0.073,0.982 ± 0.089,0.937 ± 0.073,0.988 ± 0.11,1.05 ± 0.067,1.08 ± 0.069
ARIH2 (UniProt O95376),0.993 ± 0.044,1.01 ± 0.041,0.954 ± 0.037,0.948 ± 0.068,0.954 ± 0.061,0.948 ± 0.076,0.973 ± 0.07,0.94 ± 0.046
UniProt O75179 and related entries,1.01 ± 0.025,1.04 ± 0.025,1.05 ± 0.038,1.03 ± 0.088,1.03 ± 0.086,1.07 ± 0.072,1.09 ± 0.084,1.05 ± 0.11
UniProt O75367 and related entries,0.946 ± 0.055,0.914 ± 0.042,0.969 ± 0.019,0.989 ± 0.057,1.15 ± 0.055,1.26 ± 0.078,1.43 ± 0.11,1.7 ± 0.082
UniProt P05771-2,0.994 ± 0.042,0.998 ± 0.026,0.943 ± 0.039,0.92 ± 0.072,0.904 ± 0.074,0.917 ± 0.088,0.912 ± 0.043,0.87 ± 0.077
TOX (UniProt O94900),0.978 ± 0.065,0.931 ± 0.042,1.01 ± 0.059,0.944 ± 0.021,0.934 ± 0.1,0.933 ± 0.069,0.984 ± 0.013,0.999 ± 0.047
HMGN1 (UniProt P05114),1.26 ± 0.29,1.29 ± 0.33,1.39 ± 0.48,1.52 ± 0.48,1.34 ± 0.34,1.83 ± 0.67,1.66 ± 0.36,1.8 ± 0.33
UniProt O95475,0.977 ± 0.052,1.02 ± 0.083,1.05 ± 0.023,1.01 ± 0.043,1.05 ± 0.065,1.03 ± 0.061,1.05 ± 0.054,1.11 ± 0.093
ERLIN1 (UniProt O75477),1.03 ± 0.064,1.07 ± 0.084,1.12 ± 0.14,1.13 ± 0.12,1.22 ± 0.19,1.2 ± 0.18,1.26 ± 0.29,1.15 ± 0.22
STAM2 (UniProt O75886),0.923 ± 0.067,0.914 ± 0.076,0.938 ± 0.11,0.899 ± 0.11,0.877 ± 0.087,0.876 ± 0.082,0.909 ± 0.073,0.909 ± 0.11
UniProt O95983 and related entries,0.982 ± 0.11,0.959 ± 0.076,1.19 ± 0.2,1.23 ± 0.18,1.23 ± 0.17,1.22 ± 0.16,1.28 ± 0.16,1.33 ± 0.24
UniProt P01737,0.932 ± 0.031,0.933 ± 0.0095,0.947 ± 0.026,0.946 ± 0.062,0.921 ± 0.08,0.936 ± 0.053,0.939 ± 0.031,0.943 ± 0.074
CDC123 (UniProt O75794),1.03 ± 0.016,1.02 ± 0.023,1.014 ± 0.0079,0.972 ± 0.033,1 ± 0.027,0.96 ± 0.053,1.01 ± 0.02,0.922 ± 0.034
RNGTT (UniProt O60942),1.04 ± 0.013,1.01 ± 0.031,0.962 ± 0.018,0.978 ± 0.024,0.953 ± 0.015,0.933 ± 0.041,0.881 ± 0.041,0.893 ± 0.07
UniProt O75323,0.994 ± 0.02,1.03 ± 0.037,0.972 ± 0.039,0.943 ± 0.053,0.929 ± 0.074,0.94 ± 0.052,0.943 ± 0.035,0.9 ± 0.066
UniProt P01116-2,0.974 ± 0.17,0.869 ± 0.12,0.866 ± 0.17,0.875 ± 0.13,0.908 ± 0.14,0.815 ± 0.097,0.825 ± 0.12,0.861 ± 0.14
UniProt P00390 and related entries,0.962 ± 0.035,1 ± 0.042,0.895 ± 0.028,0.895 ± 0.06,0.849 ± 0.05,0.897 ± 0.044,0.845 ± 0.043,0.842 ± 0.072
UniProt O95684-2|O95684,0.849 ± 0.048,0.862 ± 0.053,0.935 ± 0.069,0.903 ± 0.081,0.853 ± 0.086,0.859 ± 0.1,0.849 ± 0.058,0.914 ± 0.09
UniProt O75822 and related entries,0.856 ± 0.038,0.825 ± 0.074,0.908 ± 0.09,0.954 ± 0.098,1.07 ± 0.17,1.32 ± 0.22,1.4 ± 0.3,1.77 ± 0.39
UniProt P00519 and related entries,0.938 ± 0.057,0.946 ± 0.12,1.01 ± 0.098,1.02 ± 0.13,0.979 ± 0.1,1.01 ± 0.14,1.03 ± 0.07,1.08 ± 0.12
FTH1 (UniProt P02794),1.03 ± 0.11,1.08 ± 0.15,1.21 ± 0.23,1.26 ± 0.21,1.22 ± 0.21,1.27 ± 0.23,1.31 ± 0.23,1.3 ± 0.3
UniProt O95544 and related entries,0.98 ± 0.048,0.986 ± 0.054,0.92 ± 0.054,0.855 ± 0.1,0.819 ± 0.14,0.936 ± 0.06,0.863 ± 0.04,0.811 ± 0.089
UniProt O75419 and related entries,1.01 ± 0.15,0.995 ± 0.14,0.875 ± 0.04,0.899 ± 0.082,0.863 ± 0.046,0.874 ± 0.077,0.806 ± 0.058,0.792 ± 0.03
RNASEH2A (UniProt O75792),0.933 ± 0.04,0.951 ± 0.039,0.907 ± 0.051,0.878 ± 0.013,0.852 ± 0.024,0.884 ± 0.055,0.863 ± 0.047,0.845 ± 0.025
UniProt O95163,1.13 ± 0.097,1.15 ± 0.14,1.07 ± 0.11,1.14 ± 0.2,1.16 ± 0.16,1.11 ± 0.17,1.09 ± 0.12,1.04 ± 0.12
UniProt O75427 and related entries,0.987 ± 0.066,0.999 ± 0.044,1.12 ± 0.082,1.15 ± 0.26,1.27 ± 0.19,1.21 ± 0.094,1.25 ± 0.23,1.2 ± 0.19

# Single records (already shown). Values in the order: NP40-soluble protein abundance (concentration: 0.1mM)	NP40-soluble protein abundance (concentration: 0.5mM)	NP40-soluble protein abundance (concentration: 1mM)	NP40-soluble protein abundance (concentration: 2mM)	NP40-soluble protein abundance (concentration: 4mM)	NP40-soluble protein abundance (concentration: 6mM)	NP40-soluble protein abundance (concentration: 8mM)	NP40-soluble protein abundance (concentration: 10mM)
# UniProt O95628 and related entries is listed with 0.964 ± 0.028	0.909 ± 0.035	0.897 ± 0.042	0.9114 ± 0.006	0.896 ± 0.061	0.888 ± 0.014	0.879 ± 0.046	0.902 ± 0.04
# UniProt O95983 and related entries is listed with 0.982 ± 0.11	0.959 ± 0.076	1.19 ± 0.2	1.23 ± 0.18	1.23 ± 0.17	1.22 ± 0.16	1.28 ± 0.16	1.33 ± 0.24
